Experimental data as given in publication PMC3785428.

Biological target: SlNINJA (tomato NOVEL INTERACTOR OF JAZ) (tomato (Solanum lycopersicum))
Test: two-hybrid; Matchmaker system, MaV203 yeast; SlNINJA with SlJAZs (prey, pGADT7); growth on medium without Leu, Trp and His with 10 mM 3-amino-1,2,4-triazole

B1: SlJAZ7 (protein, UniProt Q9M723 1-228)
chain: MDSRMEIDFMDLNSKPKLSEMEKQHKKVSGMKWPFSLADLATHHEHTFFQNYKSTPIVSINSKNSSLNNYKSTIDPQYFRGTFPLLAKTSTYDSRKNYDNLSPNESTLTIFYMGEVHIFPGISPEKAELIIDLVSKSTTLHMDEILEKVMNKEKYEENKSDPSNASTNYAKGALAMARRATLARFLEKRKHRLIKARPYLYGENLSKFPFDIQQQEEETASSSVHWEN
B1 was tested, and the binding was “binds”.

These are yes or no findings as the source states them, for the method shown. Binding can be weak; no strength is given.
